Measurements from PMC12670160, “A drug-repurposing screen of FDA- and EMA-approved drugs identifies two NF-κB inhibitors active against eumycetoma” (Journal of Antimicrobial Chemotherapy, 2025).
Counter-ions that a name gives are not always drawn. The whole screen tested about 5,300 compounds, of which about 130 (2.5%) showed an effect of 50% or more. The list shows a part of the results.

What follows are compounds tested on M. mycetomatis strain mm55. Conditions: primary screen, metabolic activity vs growth control; 96 h, 2 µM; inhibitor.

Point of comparison: `CC1(C)NC(=O)N(c2ccc([N+](=O)[O-])c(C(F)(F)F)c2)C1=O` [ONC0002400, nilutamide], “% viability” value 83.69%. Against it:
- O=C(O)c1cc(-c2ccc(F)cc2F)ccc1O [ONC0000442, diflunisal] — lower, 77.61%
- CCCCNC(=O)NS(=O)(=O)c1ccc(C)cc1 [ONC0000556, tolbutamide] — higher, 97.76%
- COc1cc(C=O)c([N+](=O)[O-])cc1OC [ONC0004335, dmnb] — higher, 105.9%
- COC(=O)[C@@H]1[C@H]2C[C@H]3c4[nH]c5ccccc5c4CCN3C[C@@H]2CC[C@@H]1O [ONC0003380, yohimbine hydrochloride] — lower, 81.44%
- CCOc1cc(/C=C2/C(=O)N(c3ccccc3)N=C2C)cc(Cl)c1OCC(=O)OC [ONC0001388, sj172550] — higher, 101.6%
- CCCCC(CC)CNC(=N)NC(=N)NCCCCCCNC(=N)NC(=N)NCC(CC)CCCC (stereo not drawn) [Alexidine dihydrochloride] — lower, 2.643%
- CC(C)(c1ccc(O)cc1)c1ccc(O)cc1 [ONC0002174, bisphenola] — lower, 73.02%
- N[C@@H](CC(=O)Nc1ccc(Oc2cc(F)c(F)cc2Br)cc1)C(=O)O [ONC0003568, way213613] — higher, 97.57%
- CCCCCCc1ccc(O)cc1O [ONC0000355, hexylresorcinol] — lower, 72.69%
- Cc1[nH]c(/C=C2\C(=O)Nc3ccc(S(=O)(=O)N(C)c4cccc(Cl)c4)cc32)c(C)c1C(=O)N1CCN(C)CC1 [ONC0004586, su11274] — lower, 73.21%
- O=C(/C=C\n1cnc(-c2cc(C(F)(F)F)cc(C(F)(F)F)c2)n1)NNc1cnccn1 [ONC0005120, selinexor kpt330] — lower, 72.15%
- CN(C)Cc1ccc(-c2nc3cccc4c3n2CCNC4=O)cc1 [ONC0005276, ag14361] — higher, 155.3%
- CNc1ccc([N+](=O)[O-])cc1-n1cnc(-c2ccc(C(F)(F)F)cc2)c1 [ONC0003084, cut129] — higher, 98.15%
- Cc1cc(C)c(NC(=O)C2CC3CCC2C3)c(C)c1 (stereo not drawn) [ONC0003035, ml213] — lower, 82.53%
- O=C(CCCCCCCn1cc(-c2cccnc2)nn1)Nc1ccccc1-c1ccccc1 [ONC0000151, gpp78] — higher, 116.8%
- CCCCc1nc(C)c(CC(=S)N(C)C)c(=O)n1Cc1ccc(-c2ccccc2-c2nnn[nH]2)cc1 [ONC0001851, fimasartan] — higher, 108.7%
- COc1ccc(C(=O)C2CCN(CC(=O)N(Cc3nc4c(c(=O)[nH]3)COCC4)CC3CC3)CC2)cc1 [ONC0001799, nvptnks656] — higher, 96.54%
